Our source for the binding values is PMC11727237.

These are yes or no findings as the source states them, for the method shown. In cells and extracts the contact can be indirect. Some entries that bind do so weakly or less than the wild type. Where a sequence is shown, tags or fusion partners need not be part of it.

The target in the assay is Flag-STING, Q86WV6. Put plainly: co-IP; 293T cells transfected with Flag-STING and Myc-TBK1 for 24 h, then DMSO, 5 µM cGAMP, or 10 µM Ginkgetin with 5 µM cGAMP for 2 h; lysate incubated with anti-Myc beads or anti-Flag beads for 2 h at RT; washed three times (PBS salts, 0.5% Tween20); western blot with anti-Myc and anti-Flag. The conditions noted are these: remark: other sources report otherwise.

B1: Myc-TBK1, Q9UHD2 1-729 (protein)
chain: MQSTSNHLWLLSDILGQGATANVFRGRHKKTGDLFAIKVFNNISFLRPVDVQMREFEVLKKLNHKNIVKLFAIEEETTTRHKVLIMEFCPCGSLYTVLEEPSNAYGLPESEFLIVLRDVVGGMNHLRENGIVHRDIKPGNIMRVIGEDGQSVYKLTDFGAARELEDDEQFVSLYGTEEYLHPDMYERAVLRKDHQKKYGATVDLWSIGVTFYHAATGSLPFRPFEGPRRNKEVMYKIITGKPSGAISGVQKAENGPIDWSGDMPVSCSLSRGLQVLLTPVLANILEADQEKCWGFDQFFAETSDILHRMVIHVFSLQQMTAHKIYIHSYNTATIFHELVYKQTKIISSNQELIYEGRRLVLEPGRLAQHFPKTTEENPIFVVSREPLNTIGLIYEKISLPKVHPRYDLDGDASMAKAITGVVCYACRIASTLLLYQELMRKGIRWLIELIKDDYNETVHKKTEVVITLDFCIRNIEKTVKVYEKLMKINLEAAELGEISDIHTKLLRLSSSQGTIETSLQDIDSRLSPGGSLADAWAHQEGTHPKDRNVEKLQVLLNCMTEIYYQFKKDKAERRLAYNEEQIHKFDKQKLYYHATKAMTHFTDECVKKYEAFLNKSEEWIRKMLHLRKQLLSLTNQCFDIEEEVSKYQEYTNELQETLPQKMFTASSGIKHTMTPIYPSSNTLVEMTLGMKKLKEEMEGVVKELAENNHILERFGSLTMDGGLRNVDCL
Turning to B1, the binding entry was “binds”.
